Values from PubChem BioAssay AID1259308 (NCATS, 2017)
Here is one part, drawn at random, of about 59,000 reagents. About 1,510 of them (2.6%) were called active. 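Calls use total luciferase alone and ignore viability, so some active siRNAs may act by altering cell number.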 Further read-outs or replicates are left out here.

- Assay: 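Candidate targets for better recombinant protein yield in mammalian cells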 (primary screen)
- System: human HEK293 embryonic kidney cells stably expressing firefly luciferase (HEK-CMV-Luc2-Hygro)
- Reagents: single siRNA against human genes, 0.8 pmol siRNA per well
- Duration: 72 h
- Read-out: 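Luciferase light (ONE-Glo) measured on one replicate plate set and viability (CellTiter-Glo) on the other, scaled to a negative control siRNA, with robust z-scores and luciferase per cell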
- Direction: total luciferase, z-score: higher = more reporter protein produced
- Call rule: 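Active when the median/MAD z-score for overall luciferase is greater than 3; a gene was taken forward for validation with new siRNAs if at least two of its three siRNAs passed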
- Meaning of the calls: active = raised luciferase; inactive = no rise

With BTBD7 [SID160744193], what was measured?
total luciferase, z-score: 1.44; call: inactive

Which result is listed for BTBD7 [SID160744194]?
total luciferase, z-score: -0.546; call: inactive

What did the screen give for BTBD7 [SID160744195]?
total luciferase, z-score: 0.704; call: inactive

With SBF1 [SID160716355], what was measured?
total luciferase, z-score: -0.99; call: inactive

What is on record for SBF1 [SID160716356]?
total luciferase, z-score: 0.826; call: inactive

For SBF1 [SID160716357], how do the results read?
total luciferase, z-score: 1.59; call: inactive

With UNCX [SID160725515], how do the results read?
total luciferase, z-score: 1.98; call: inactive

Which result is listed for UNCX [SID160768479]?
total luciferase, z-score: 0.61; call: inactive

What did the screen give for UNCX [SID160768481]?
total luciferase, z-score: -0.902; call: inactive

For KCNK4 [SID160724402], what was measured?
total luciferase, z-score: 0.282; call: inactive

With KCNK4 [SID160724403], how do the results read?
total luciferase, z-score: 0.603; call: inactive

Which result is listed for KCNK4 [SID160739700]?
total luciferase, z-score: 0.000311; call: inactive

Which result is listed for MIR3945HG [SID160734827]?
total luciferase, z-score: 0.0844; call: inactive

For MIR3945HG [SID160774113], what does the deposit list?
total luciferase, z-score: 0.219; call: inactive

What did the screen give for MIR3945HG [SID160774114]?
total luciferase, z-score: -0.345; call: inactive

With NVL [SID160778312], what does the deposit list?
total luciferase, z-score: -0.198; call: inactive

For NVL [SID160778313], what was measured?
total luciferase, z-score: -0.233; call: inactive

What is on record for NVL [SID160778315]?
total luciferase, z-score: 0.016; call: inactive

What is on record for PRRG1 [SID160715090]?
total luciferase, z-score: -1.46; call: inactive

For PRRG1 [SID160715091], what was measured?
total luciferase, z-score: -0.923; call: inactive

With PRRG1 [SID160715092], how do the results read?
total luciferase, z-score: -1.21; call: inactive

For SUDS3 [SID160747776], what was measured?
total luciferase, z-score: -0.115; call: inactive

For SUDS3 [SID160747777], what was measured?
total luciferase, z-score: -1.11; call: inactive

For SUDS3 [SID160747778], what was measured?
total luciferase, z-score: -1.09; call: inactive

What is on record for C8orf76 [SID160752974]?
total luciferase, z-score: 0.227; call: inactive

For C8orf76 [SID160752975], what was measured?
total luciferase, z-score: 0.204; call: inactive

With C8orf76 [SID160752976], what does the deposit list?
total luciferase, z-score: 2.44; call: inactive

What is on record for TC2N [SID160756045]?
total luciferase, z-score: -1.06; call: inactive

What did the screen give for TC2N [SID160756046]?
total luciferase, z-score: 0.422; call: inactive

What is on record for TC2N [SID160756048]?
total luciferase, z-score: 0.547; call: inactive

For MIEF2 [SID160756318], what was measured?
total luciferase, z-score: -0.131; call: inactive

For MIEF2 [SID160756319], what does the deposit list?
total luciferase, z-score: 1.1; call: inactive

With MIEF2 [SID160756320], what does the deposit list?
total luciferase, z-score: -0.0221; call: inactive

For DGCR8 [SID160741776], what does the deposit list?
total luciferase, z-score: 0.192; call: inactive

What is on record for DGCR8 [SID160741777]?
total luciferase, z-score: 0.165; call: inactive

Which result is listed for DGCR8 [SID160741778]?
total luciferase, z-score: -0.756; call: inactive

With RFX4 [SID160715850], how do the results read?
total luciferase, z-score: 1.21; call: inactive

For RFX4 [SID160715851], what does the deposit list?
total luciferase, z-score: -0.878; call: inactive

What is on record for RFX4 [SID160715852]?
total luciferase, z-score: 1.79; call: inactive

Which result is listed for SAGE2P [SID160769306]?
total luciferase, z-score: 0.863; call: inactive

Which result is listed for SAGE2P [SID160769307]?
total luciferase, z-score: 2.17; call: inactive

With SAGE2P [SID160769308], what was measured?
total luciferase, z-score: -0.0729; call: inactive
